According to US8921362B2, “6,7-dialkoxy quinazoline derivatives and methods of treating drug resistant and other tumors” (Natco Pharma Limited, priority 2008, dated 2014):
For at least one compound, name, drawing or mass did not settle the structure.

Sequences of proteins named here, by UniProt entry; tags and fusion partners are left off. A change or cut given only in a name is not applied to a line headed by its entry. Residues count along the entry.
UniProt Q99683: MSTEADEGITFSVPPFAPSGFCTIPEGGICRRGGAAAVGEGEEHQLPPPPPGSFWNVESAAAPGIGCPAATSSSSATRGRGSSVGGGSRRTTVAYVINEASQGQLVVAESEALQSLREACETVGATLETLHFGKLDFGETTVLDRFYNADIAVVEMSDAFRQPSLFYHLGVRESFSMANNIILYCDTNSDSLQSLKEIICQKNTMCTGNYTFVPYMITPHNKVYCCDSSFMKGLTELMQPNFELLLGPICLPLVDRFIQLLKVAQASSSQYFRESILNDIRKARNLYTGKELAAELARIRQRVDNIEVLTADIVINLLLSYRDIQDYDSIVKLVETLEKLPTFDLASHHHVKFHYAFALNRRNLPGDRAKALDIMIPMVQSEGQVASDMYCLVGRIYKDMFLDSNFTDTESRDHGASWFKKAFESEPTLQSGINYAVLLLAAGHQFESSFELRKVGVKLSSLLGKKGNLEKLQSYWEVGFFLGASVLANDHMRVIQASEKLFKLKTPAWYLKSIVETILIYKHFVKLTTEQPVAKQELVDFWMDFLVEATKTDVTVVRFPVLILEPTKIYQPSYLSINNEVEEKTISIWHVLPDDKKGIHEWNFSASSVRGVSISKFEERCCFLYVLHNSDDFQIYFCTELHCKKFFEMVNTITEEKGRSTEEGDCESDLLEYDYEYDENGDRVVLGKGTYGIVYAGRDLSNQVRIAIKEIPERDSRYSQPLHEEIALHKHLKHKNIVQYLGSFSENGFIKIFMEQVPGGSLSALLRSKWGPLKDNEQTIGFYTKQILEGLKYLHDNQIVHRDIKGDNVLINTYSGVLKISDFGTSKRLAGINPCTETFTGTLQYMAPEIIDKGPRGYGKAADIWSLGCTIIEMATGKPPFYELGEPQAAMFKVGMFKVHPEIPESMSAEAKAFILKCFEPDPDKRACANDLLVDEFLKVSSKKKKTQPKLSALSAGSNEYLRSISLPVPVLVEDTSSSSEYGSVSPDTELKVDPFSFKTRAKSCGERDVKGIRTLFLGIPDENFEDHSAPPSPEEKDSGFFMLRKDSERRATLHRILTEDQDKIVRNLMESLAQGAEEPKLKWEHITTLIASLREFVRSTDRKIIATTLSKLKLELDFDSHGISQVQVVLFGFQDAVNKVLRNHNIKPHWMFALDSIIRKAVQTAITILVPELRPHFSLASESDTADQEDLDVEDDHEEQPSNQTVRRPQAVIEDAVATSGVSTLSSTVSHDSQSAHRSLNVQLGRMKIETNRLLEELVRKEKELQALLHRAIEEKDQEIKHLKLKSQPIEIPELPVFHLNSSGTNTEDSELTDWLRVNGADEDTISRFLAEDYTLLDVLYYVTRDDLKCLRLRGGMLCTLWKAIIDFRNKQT
UniProt Q13873, 27-1038: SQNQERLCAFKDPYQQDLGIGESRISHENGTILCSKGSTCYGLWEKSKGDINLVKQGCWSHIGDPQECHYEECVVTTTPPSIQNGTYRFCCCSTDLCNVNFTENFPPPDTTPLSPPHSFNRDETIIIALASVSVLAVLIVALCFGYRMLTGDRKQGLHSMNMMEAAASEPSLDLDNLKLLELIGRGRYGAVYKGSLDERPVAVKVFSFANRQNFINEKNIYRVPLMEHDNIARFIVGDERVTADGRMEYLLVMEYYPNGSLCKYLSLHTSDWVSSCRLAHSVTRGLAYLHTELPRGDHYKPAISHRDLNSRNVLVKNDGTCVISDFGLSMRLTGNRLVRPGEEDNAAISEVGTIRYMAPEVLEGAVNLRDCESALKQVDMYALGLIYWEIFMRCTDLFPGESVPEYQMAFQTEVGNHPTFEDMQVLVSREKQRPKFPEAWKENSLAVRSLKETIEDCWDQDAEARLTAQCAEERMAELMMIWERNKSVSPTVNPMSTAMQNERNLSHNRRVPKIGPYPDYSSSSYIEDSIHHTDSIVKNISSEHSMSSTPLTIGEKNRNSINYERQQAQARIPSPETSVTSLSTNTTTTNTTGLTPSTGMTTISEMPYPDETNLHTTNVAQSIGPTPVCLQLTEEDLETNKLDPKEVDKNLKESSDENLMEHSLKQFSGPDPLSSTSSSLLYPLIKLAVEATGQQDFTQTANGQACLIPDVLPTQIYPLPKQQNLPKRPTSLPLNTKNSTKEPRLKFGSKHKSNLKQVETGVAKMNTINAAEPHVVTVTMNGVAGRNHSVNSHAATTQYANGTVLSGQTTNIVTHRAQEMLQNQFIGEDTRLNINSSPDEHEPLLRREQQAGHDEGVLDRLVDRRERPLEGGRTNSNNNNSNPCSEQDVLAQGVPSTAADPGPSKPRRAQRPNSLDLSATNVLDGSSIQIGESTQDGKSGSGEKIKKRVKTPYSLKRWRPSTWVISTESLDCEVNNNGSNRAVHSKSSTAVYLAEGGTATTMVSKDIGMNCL
UniProt P29317, 24-976: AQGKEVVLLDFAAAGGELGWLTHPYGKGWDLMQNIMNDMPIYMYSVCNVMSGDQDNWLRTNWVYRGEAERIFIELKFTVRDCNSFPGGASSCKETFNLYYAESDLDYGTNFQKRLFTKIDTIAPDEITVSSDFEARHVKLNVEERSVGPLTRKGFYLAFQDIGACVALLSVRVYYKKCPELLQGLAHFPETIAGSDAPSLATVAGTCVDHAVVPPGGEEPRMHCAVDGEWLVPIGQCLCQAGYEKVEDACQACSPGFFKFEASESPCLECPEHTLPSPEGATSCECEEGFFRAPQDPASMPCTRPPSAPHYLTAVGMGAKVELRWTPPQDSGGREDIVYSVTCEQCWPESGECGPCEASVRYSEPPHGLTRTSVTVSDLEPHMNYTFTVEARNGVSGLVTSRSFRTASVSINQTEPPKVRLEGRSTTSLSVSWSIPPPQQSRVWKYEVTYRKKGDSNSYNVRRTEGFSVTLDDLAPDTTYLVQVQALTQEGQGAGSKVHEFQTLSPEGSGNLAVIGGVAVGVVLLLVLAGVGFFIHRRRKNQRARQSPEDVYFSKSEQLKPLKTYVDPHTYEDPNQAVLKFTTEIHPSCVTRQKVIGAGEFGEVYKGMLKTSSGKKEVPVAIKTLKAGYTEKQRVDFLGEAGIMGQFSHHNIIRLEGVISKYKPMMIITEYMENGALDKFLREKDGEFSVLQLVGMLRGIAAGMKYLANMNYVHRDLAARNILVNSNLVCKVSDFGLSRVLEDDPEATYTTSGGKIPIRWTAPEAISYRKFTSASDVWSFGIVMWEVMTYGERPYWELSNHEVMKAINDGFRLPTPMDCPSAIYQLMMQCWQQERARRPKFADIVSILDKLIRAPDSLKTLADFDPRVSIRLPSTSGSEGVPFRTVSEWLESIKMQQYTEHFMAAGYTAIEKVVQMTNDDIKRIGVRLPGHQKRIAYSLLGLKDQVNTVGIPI
UniProt P04629, 33-796: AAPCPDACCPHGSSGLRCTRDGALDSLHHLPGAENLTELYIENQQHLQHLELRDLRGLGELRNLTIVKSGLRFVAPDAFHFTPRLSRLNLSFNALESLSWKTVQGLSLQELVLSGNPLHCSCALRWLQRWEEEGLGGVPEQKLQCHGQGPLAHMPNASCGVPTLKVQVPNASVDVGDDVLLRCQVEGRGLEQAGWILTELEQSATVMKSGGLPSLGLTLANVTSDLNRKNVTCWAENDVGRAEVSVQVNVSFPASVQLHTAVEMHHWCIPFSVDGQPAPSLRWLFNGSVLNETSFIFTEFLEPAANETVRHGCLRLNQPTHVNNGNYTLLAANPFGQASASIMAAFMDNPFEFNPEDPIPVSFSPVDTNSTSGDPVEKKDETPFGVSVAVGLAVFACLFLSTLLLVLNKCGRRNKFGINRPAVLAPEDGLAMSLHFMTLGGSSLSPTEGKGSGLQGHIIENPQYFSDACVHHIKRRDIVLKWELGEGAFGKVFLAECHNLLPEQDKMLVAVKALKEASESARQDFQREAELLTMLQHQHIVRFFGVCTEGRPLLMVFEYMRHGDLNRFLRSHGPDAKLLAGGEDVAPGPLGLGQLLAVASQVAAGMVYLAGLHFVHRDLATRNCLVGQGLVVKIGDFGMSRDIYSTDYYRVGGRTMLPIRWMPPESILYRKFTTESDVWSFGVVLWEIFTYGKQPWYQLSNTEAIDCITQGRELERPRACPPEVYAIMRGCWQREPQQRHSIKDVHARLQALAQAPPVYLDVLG
UniProt P21802, 22-821: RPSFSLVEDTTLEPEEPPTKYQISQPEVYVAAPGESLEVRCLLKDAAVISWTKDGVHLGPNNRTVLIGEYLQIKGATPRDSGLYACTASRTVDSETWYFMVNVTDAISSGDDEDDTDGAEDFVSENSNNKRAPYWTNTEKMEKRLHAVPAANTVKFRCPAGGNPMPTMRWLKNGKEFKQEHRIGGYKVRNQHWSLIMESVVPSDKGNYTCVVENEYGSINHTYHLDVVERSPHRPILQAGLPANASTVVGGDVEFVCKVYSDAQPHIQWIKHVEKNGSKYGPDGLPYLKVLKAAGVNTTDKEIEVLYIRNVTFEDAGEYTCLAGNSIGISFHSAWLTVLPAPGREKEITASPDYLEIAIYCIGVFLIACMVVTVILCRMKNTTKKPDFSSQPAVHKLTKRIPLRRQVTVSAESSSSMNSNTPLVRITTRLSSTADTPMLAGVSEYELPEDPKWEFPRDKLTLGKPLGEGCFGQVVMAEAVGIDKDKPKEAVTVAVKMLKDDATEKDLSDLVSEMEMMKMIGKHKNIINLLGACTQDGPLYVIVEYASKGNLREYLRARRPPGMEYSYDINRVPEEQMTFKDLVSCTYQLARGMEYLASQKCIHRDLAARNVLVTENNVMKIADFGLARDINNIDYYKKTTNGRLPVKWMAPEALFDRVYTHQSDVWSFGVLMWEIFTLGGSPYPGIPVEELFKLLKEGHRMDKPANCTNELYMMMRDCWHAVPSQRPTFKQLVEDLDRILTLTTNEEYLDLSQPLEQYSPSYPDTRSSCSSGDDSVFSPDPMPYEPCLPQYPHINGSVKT
UniProt P28482, whole entry: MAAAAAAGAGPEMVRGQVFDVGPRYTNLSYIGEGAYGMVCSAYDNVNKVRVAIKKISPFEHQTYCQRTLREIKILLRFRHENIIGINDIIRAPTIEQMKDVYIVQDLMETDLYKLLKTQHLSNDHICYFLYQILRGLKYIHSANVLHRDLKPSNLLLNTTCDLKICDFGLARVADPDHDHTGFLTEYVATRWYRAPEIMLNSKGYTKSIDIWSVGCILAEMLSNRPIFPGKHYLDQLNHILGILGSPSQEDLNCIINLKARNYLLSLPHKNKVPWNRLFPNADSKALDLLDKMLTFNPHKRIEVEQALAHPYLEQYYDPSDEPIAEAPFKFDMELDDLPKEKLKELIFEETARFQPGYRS
UniProt P49336: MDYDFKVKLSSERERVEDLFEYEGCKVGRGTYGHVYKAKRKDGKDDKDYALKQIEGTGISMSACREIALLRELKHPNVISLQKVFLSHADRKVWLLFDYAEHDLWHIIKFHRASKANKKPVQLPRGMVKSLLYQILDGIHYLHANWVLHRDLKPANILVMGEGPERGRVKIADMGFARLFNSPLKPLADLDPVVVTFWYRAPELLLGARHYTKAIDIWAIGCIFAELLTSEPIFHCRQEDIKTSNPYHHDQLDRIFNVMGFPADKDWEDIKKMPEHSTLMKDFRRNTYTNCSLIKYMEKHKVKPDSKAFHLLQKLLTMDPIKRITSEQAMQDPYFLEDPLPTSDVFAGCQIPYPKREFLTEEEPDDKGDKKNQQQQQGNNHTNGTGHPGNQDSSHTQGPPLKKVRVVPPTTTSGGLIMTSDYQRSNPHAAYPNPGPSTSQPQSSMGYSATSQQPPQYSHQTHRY
UniProt Q96L34: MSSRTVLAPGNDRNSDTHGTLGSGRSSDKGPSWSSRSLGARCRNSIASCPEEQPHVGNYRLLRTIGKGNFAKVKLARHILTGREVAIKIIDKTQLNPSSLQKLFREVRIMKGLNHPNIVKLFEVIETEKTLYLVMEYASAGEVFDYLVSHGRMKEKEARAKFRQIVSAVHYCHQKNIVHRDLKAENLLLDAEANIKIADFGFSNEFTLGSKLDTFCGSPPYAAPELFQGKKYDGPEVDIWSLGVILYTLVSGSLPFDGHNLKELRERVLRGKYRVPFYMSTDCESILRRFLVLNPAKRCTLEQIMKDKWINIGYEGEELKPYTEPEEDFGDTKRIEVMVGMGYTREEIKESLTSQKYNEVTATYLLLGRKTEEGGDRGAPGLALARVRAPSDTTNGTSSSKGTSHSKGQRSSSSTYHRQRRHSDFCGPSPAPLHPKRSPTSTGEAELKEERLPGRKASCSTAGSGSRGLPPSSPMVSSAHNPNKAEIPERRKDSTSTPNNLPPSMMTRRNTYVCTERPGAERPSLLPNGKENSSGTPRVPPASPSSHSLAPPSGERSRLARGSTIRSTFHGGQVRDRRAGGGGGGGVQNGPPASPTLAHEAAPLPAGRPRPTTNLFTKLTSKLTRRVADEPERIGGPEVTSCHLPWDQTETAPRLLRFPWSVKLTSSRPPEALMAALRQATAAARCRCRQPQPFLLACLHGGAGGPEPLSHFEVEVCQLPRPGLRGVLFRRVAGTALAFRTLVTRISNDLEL

Legend:
[1] = molecular target: ERBB2 (Homo sapiens, UniProt P04626); experiment: Down regulation of receptors, western blot in A549 cells; format: cell-based; parameters: endogenous in cells; host or cells: A549; conditions: FIG. 8
Experimental: (§1) Levels of Erb-1, Erb-2, Erb-3, Erb-4 and VEGFR were determined by western blot analysis.

[2] = molecular target: ERBB4 (Homo sapiens, UniProt Q15303); experiment: as above; format: cell-based; parameters: endogenous in cells; host or cells: A549; conditions: FIG. 8
Experimental: as §1

[3] = molecular target: T1, MYO3B (Homo sapiens, UniProt Q8WXR4); experiment: KinomeScan; format: binding; parameters: key: most active is indicated as (++); very little inhibiting effect is indicated as (−−)
T1 construct: host or cells: T7 phage grown in E. coli host derived from BL21
Experimental: (§2) Kinase assays: Assays were performed as described in Fabian et al. (2005) Nature Biotechnology, vol. 23, p. 329. Kinase-tagged T7 phage strains were grown in parallel in 24 or 96-well blocks in an E. coli host derived from the BL21 strain. E. coli were grown to log-phase and infected with T7 phage from a frozen stock (multiplicity of infection ˜0.1) and incubated with shaking at 32° C. until lysis (−90 minutes). The lysates were centrifuged and filtered to remove cell debris. […] The liganded beads were blocked with excess biotin and washed with blocking buffer (SeaBlock (Pierce), 1% BSA, 0.05% Tween 20, 1 mM DTT) to remove unbound ligand and to reduce non-specific phage binding.
(§3) Test compounds were prepared as 40× stocks in DMSO and diluted into the aqueous environment. 2.5% DMSO was added to control assays lacking a test compound. All reactions were performed in polystyrene 96-well plates that had been pretreated with blocking buffer in a final volume of 0.04 ml. […] The phage titer in the eluates was measured by quantitative PCR.

[4] = molecular target: T2, FGFR3 (Homo sapiens, UniProt P22607); experiment: KinomeScan; format: binding; parameters: key: most active is indicated as (++); very little inhibiting effect is indicated as (−−)
T2 construct: host or cells: T7 phage in E. coli host derived from BL21
Experimental: as §2, §3

[5] = molecular target: T3, CDK5 (Homo sapiens, UniProt Q00535); experiment: KinomeScan; format: binding; parameters: key: most active is indicated as (++); very little inhibiting effect is indicated as (−−)
T3 construct: host or cells: T7 phage in E. coli host derived from BL21
Experimental: as §2, §3

[6] = molecular target: T4, AURKA (Homo sapiens, UniProt O14965); experiment: KinomeScan; format: binding; parameters: key: most active is indicated as (++); very little inhibiting effect is indicated as (−−); conditions: AURKA1
T4 construct: host or cells: E. coli host derived from BL21
Experimental: as §2, §3

[7] = molecular target: T5, ASK1 (Homo sapiens, UniProt Q99683); experiment: KinomeScan; format: binding; parameters: key: most active is indicated as (++); very little inhibiting effect is indicated as (−−)
T5 construct: host or cells: E. coli host derived from BL21
Experimental: as §2, §3

[8] = molecular target: T6, BMPR2 (Homo sapiens, UniProt Q13873); experiment: KinomeScan; format: binding; parameters: key: most active is indicated as (++); very little inhibiting effect is indicated as (−−); conditions: BMPR^2
T6 construct: host or cells: E. coli host derived from BL21
Experimental: as §2, §3

[9] = molecular target: T7, EPHA2 (Homo sapiens, UniProt P29317); experiment: KinomeScan; format: binding; parameters: key: most active is indicated as (++); very little inhibiting effect is indicated as (−−)
T7 construct: purchased Ambit Biosciences Corp; host or cells: T7 phage in E. coli host derived from BL21
Experimental: as §2, §3

[10] = molecular target: T8, MLK1 (Homo sapiens, UniProt P80192); experiment: KinomeScan; format: binding; parameters: key: most active is indicated as (++); very little inhibiting effect is indicated as (−−)
T8 construct: host or cells: T7 phage grown in E. coli host derived from BL21
Experimental: as §2, §3

[11] = molecular target: T9, RAF1 (Homo sapiens, UniProt P04049); experiment: KinomeScan; format: binding; parameters: key: most active is indicated as (++); very little inhibiting effect is indicated as (−−); conditions: RAF-1
T9 construct: host or cells: E. coli host derived from BL21, T7 phage display
Experimental: as §2, §3

[12] = molecular target: T10, RET (Homo sapiens, UniProt P07949); experiment: KinomeScan; format: binding; parameters: key: most active is indicated as (++); very little inhibiting effect is indicated as (−−)
T10 construct: host or cells: E. coli host derived from BL21, T7 phage display
Experimental: as §2, §3

[13] = molecular target: T11, MST1 (Homo sapiens, UniProt Q13043); experiment: KinomeScan; format: binding; parameters: key: most active is indicated as (++); very little inhibiting effect is indicated as (−−)
T11 construct: host or cells: T7 phage grown in E. coli host derived from BL21
Experimental: as §2, §3

[14] = molecular target: T12, TRKA (Homo sapiens, UniProt P04629); experiment: KinomeScan; format: binding; parameters: key: most active is indicated as (++); very little inhibiting effect is indicated as (−−)
T12 construct: host or cells: E. coli host derived from BL21, T7 phage
Experimental: as §2, §3

[15] = molecular target: T13, FGFR2 (Homo sapiens, UniProt P21802); experiment: KinomeScan; format: binding; parameters: key: most active is indicated as (++); very little inhibiting effect is indicated as (−−); conditions: FGFR^2
T13 construct: host or cells: T7 phage in E. coli host derived from BL21
Experimental: as §2, §3

[16] = molecular target: T14, AKT2 (Homo sapiens, UniProt P31751); experiment: KinomeScan; format: binding; parameters: key: most active is indicated as (++); very little inhibiting effect is indicated as (−−)
T14 construct: host or cells: E. coli (BL21-derived), T7 phage lysate
Experimental: as §2, §3

[17] = molecular target: T15, MEK3 (Homo sapiens, UniProt P46734); experiment: KinomeScan; format: binding; parameters: key: most active is indicated as (++); very little inhibiting effect is indicated as (−−)
T15 construct: host or cells: E. coli host derived from the BL21 strain, infected with T7 phage
Experimental: as §2, §3

[18] = molecular target: T16, ERK2 (Homo sapiens, UniProt P28482); experiment: KinomeScan; format: binding; parameters: key: most active is indicated as (++); very little inhibiting effect is indicated as (−−)
T16 construct: purchased Ambit Biosciences Corp; host or cells: T7 phage in E. coli host derived from BL21
Experimental: as §2, §3

[19] = molecular target: T17, CDK8 (Homo sapiens, UniProt P49336); experiment: KinomeScan; format: binding; parameters: key: most active is indicated as (++); very little inhibiting effect is indicated as (−−)
T17 construct: host or cells: T7 phage in E. coli host derived from BL21
Experimental: as §2, §3

[20] = molecular target: T18, MARK4 (Homo sapiens, UniProt Q96L34); experiment: KinomeScan; format: binding; parameters: key: most active is indicated as (++); very little inhibiting effect is indicated as (−−)
T18 construct: host or cells: E. coli host derived from the BL21 strain, infected with T7 phage
Experimental: as §2, §3

SMILES: C#Cc1cccc(Nc2ncnc3cc(OC)c(OCCCN4CCOCC4)cc23)c1 [NRC-2694, N-(3-ethynylphenyl)-7-methoxy-6-[3-(4-morpholinyl)propoxy]-4-quinazolinamine]
- Erb B2 levels [1]: down regulated
- Erb B4 levels [2]: down regulated
- Kinase Activity Trends [3]: (−−)
- Kinase Activity Trends [4]: (−−)
- Kinase Activity Trends [5]: (−−)
- Kinase Activity Trends [6]: (−−)
- Kinase Activity Trends [7]: (−−)
- Kinase Activity Trends [8]: (−−)
- Kinase Activity Trends [9]: (−−)
- Kinase Activity Trends [10]: (−−)
- Kinase Activity Trends [11]: (−−)
- Kinase Activity Trends [12]: (−−)
- Kinase Activity Trends [13]: (−−)
- Kinase Activity Trends [14]: (−−)
- Kinase Activity Trends [15]: (−−)
- Kinase Activity Trends [16]: (−−)
- Kinase Activity Trends [17]: (−−)
- Kinase Activity Trends [18]: (−−)
- Kinase Activity Trends [19]: (−−)
- Kinase Activity Trends [20]: (−−)
